This passage reports binding results from patent US20020127227A1 (GlaxoSmithKline, published 2002).

Experiment [1] concerns the target T1, recombinant human RHAMM (receptor for hyaluronic acid mediated motility), GST tag removed (human) (UniProt O75330).
T1 sequence (looked up): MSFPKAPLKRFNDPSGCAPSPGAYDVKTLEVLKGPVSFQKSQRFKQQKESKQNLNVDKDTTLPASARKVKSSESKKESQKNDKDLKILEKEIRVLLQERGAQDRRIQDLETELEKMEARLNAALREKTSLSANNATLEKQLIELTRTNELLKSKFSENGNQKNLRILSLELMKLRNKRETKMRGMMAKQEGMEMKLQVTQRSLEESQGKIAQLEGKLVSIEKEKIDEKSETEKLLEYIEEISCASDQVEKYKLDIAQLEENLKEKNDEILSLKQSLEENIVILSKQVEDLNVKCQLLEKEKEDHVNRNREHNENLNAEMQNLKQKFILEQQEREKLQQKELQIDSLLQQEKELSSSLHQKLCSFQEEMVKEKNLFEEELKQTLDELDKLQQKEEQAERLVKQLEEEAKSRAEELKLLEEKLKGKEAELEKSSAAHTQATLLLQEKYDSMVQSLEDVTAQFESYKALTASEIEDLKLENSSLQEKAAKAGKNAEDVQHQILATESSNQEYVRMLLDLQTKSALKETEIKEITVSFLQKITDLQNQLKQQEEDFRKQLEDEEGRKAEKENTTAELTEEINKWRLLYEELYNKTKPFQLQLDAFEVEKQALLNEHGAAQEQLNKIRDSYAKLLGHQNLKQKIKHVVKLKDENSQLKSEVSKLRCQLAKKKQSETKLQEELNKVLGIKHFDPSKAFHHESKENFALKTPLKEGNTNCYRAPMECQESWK
The experiment in a line: BIAcore SPR, mAb captured on rabbit anti-mouse IgG Fc, RHAMM injected. In general terms: In SPR one partner is held on a chip, and binding of the other changes the refractive index at the surface.

The target in experiment [2] is T2, GST-RHAMM (glutathione-S-transferase fused to the amino terminus of human RHAMM via a linker containing a thrombin cleavage site) (human) (UniProt O75330).
T2 sequence (looked up): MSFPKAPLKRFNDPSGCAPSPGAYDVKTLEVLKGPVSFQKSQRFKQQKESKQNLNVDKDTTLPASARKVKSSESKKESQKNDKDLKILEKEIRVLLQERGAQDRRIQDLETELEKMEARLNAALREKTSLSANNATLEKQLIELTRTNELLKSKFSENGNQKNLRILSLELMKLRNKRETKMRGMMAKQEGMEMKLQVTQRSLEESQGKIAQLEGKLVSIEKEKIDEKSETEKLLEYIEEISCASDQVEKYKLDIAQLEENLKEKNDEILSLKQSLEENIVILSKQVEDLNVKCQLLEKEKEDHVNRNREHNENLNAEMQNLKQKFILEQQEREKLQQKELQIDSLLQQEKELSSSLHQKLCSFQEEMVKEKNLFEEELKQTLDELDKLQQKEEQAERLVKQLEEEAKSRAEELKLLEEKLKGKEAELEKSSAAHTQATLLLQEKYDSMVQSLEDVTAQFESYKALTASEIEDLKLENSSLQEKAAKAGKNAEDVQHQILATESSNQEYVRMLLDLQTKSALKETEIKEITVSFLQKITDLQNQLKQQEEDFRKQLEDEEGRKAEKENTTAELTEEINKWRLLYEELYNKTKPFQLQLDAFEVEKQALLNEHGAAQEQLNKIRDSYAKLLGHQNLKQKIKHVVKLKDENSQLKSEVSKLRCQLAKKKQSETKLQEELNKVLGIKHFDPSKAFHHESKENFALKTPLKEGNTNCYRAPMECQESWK
The experiment can be described thus: plate immunoassay, coated antigen, biotinylated anti-mouse antibody and Eu3+ streptavidin fluorescence.

Results are given in words; binding and its absence hold for the method and conditions named. Some results given as binding are weak or reduced against the parent protein; the word gives no strength. Tags and fused reporters may be left off the sequences shown.

B1: murine monoclonal antibody 16E10 (antibody, V domains shown)
VH: QVQLKESGPGLVAPSQSLSITCTVSGFSLTGYGVNWVRQPPGKGLEWLGMIWVDGGTDYNSALKSRLSISKDNSKSQVFLKMNSLQTDDTARYYCARGGSSLLGFAYWGQGTLVTVSA
VL: DIQMTQTTSSLSASLGDRVTISCRASQDISNYLNWYQQKPDGTVKLLIYYTSRLHSGVPSRFSGSGSGTDYSLTISNLEQEDIATYFCQQGNTLPRTFGGGTKLEIKR
modifications: N-terminus of the heavy chain blocked with pyroglutamic acid
notes: The rest is mouse IgG with a kappa light chain (amplified with mouse IgG CH1 and C kappa primers); also called mAb 16E10; ATCC 16E10
For the molecule B1, the binding result in experiment [1] and in experiment [2] was “binds” throughout.
